Measurements: patent US20240174980A1, “PROCESS FOR MANUFACTURE OF A COMPOSITION FOR THE TREATMENT OF OSTEOARTHRITIS IN A SUBJECT” (STEM CELLX EUROPE KFT, priority 2021, published 2024)

System: differentiating MSCs
Assay: Transcriptome analysis (next-generation sequencing, GO analysis) of differentiating MSCs treated with KYNA or THBS1
Assay type: cell-based, canine
Settings: 50 ng/ml THBS1 added after 7 days of differentiation, for 5 days

Substance: THBS1: Thrombospondin 1, adhesive glycoprotein encoded by the THBS1 gene, added to differentiating MSCs at 50 ng/ml
- THBS1 treatment (Significance), GO:0000278 mitotic cell cycle: 4.6E−08
- THBS1 treatment (Significance), GO:0001503 bone formation: 1.72E−07
- THBS1 treatment (Significance), GO:0001568 blood vessel formation: 1.46E−06
- THBS1 treatment (Significance), GO:0031012 extracellular matrix: 1.45E−06
- THBS1 treatment (Significance), GO:0051216 cartilage formation: 0.0042
- THBS1 treatment (Significance), GO:0062023 collagen-containing extracellular matrix: 1.09E−05
